Test: general procedure: solution-phase peptide synthesis; 1,3-dicyclohexylcarbodiimide / 1-hydroxybenzotriazole monohydrate
Conditions: coupling step

Substance	step yield
(S)-2-[(2-furoyl)-β-cyclohexyl-L-alanyl-glycyl-glycyl-amino]-5-(1-piperidinyl)pentanoic acid N-[2-(1-piperidinyl)ethyl] amide dihydrochloride	58%
(S)-2-[(2-furoyl)-β-cyclohexyl-L-alanyl-glycyl-glycyl-amino]-5-(1-piperidinyl)pentanoic acid benzyl amide	94%
